This is an account of results in PubChem BioAssay AID445 (National Center for Advancing Translational Sciences (NCATS), 2006).

Broadly, the AC50 is the concentration at which the activity in the assay is half-maximal.

The nature of the test: IkB Signaling. The settings on record: ABC-DLBCL IkBa-CBG/CBR dual luciferase ratio (green luciferase fused to IkBa over red control in OCI-Ly3 lymphoma cells), 4 h. Put shortly: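 Luminescence ratio of IκBα-fused green versus native red beetle luciferase in OCI-Ly3 cells, 4 h post-doxycycline with compound; red signal alone, scaled from basal (0%) to zero light (-100%), flagged nonspecific or cytotoxic effects.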
[1] abbreviates: measured here: control luc red channel unless noted.
[2] abbreviates: measured here: IkB-luc green channel.
Setting [3] is: measured here: control luc red channel.

Each structure is given as a SMILES string. Where “and” joins values, the source holds several entries; their conditions need not be identical. Equal entries are not always repeated. The list shows a part of the results. These are further read-outs of the screen, such as a control signal, another cell line or another target. No call is given for them. Compounds called inactive in the main read-out are mostly missing here. Potencies come from curve fits of mixed quality, noted in brackets.

`CCc1ccccc1NC(=O)CSc1nnc2ccc3ccccc3n12`: the AC50 under setting [1] is 2 µM [falling, partial curve].
Still for that read-out and setting: the same measure for `Cc1cccc(N2CCN(S(=O)(=O)c3cc(C(=O)Nc4ccccc4Cl)ccc3F)CC2)c1C`: 12.6 µM [falling, partial curve]; for `COC(=O)c1cc2oc3ccccc3c2n1Cc1nc(-c2ccccc2C)oc1C`: 0.2 µM [rising, full curve, poor fit]; for `Cc1ccc(NC(=O)[C@@H](c2ccccc2)N2Cc3ccccc3C2=O)cc1`: 25.1 µM [falling, single point].
Same read-out and setting: for `CC(C)(C)OC(=O)N1CCC(c2c(C(=O)NCCN3CCC(Cc4ccccc4)CC3)cnn2-c2ccc(F)cc2)CC1` the value was 20 µM [falling, partial curve].
`Brc1ccc(-n2nc(-c3ccccc3)c3cnc4cc5c(cc4c32)OCO5)cc1`: the AC50 under setting [2] is 10 µM [rising, partial curve] and the AC50 under setting [3] was 12.6 µM [rising, partial curve].
On to `COc1ccc(OC)c(CCNc2nc3ccccc3c3nc(-c4cccnc4)nn23)c1`, for which the half-maximal activity concentration (AC50) under setting [1] was 0.0794 µM [rising, full curve, poor fit].
Consider `COc1ccc2[nH]c(=O)c(CN(Cc3cccs3)Cc3nnnn3C(C)(C)C)cc2c1`, for which the AC50 under setting [1] was 20 µM [falling, partial curve].
Still for that read-out and setting: for `Cc1ccc2[nH]c(CSc3nnc(NC(=O)c4ccc(Cl)cc4)s3)cc(=O)c2c1` the value was 0.398 µM [rising, partial curve, poor fit]; for `Cc1nn(CCCC(=O)N2CCc3ccccc3C2)c(=O)c2cc3sccc3n12`, 25.1 µM [falling, partial curve]; for `Nc1ncn([C@@H]2O[C@@H](CO)[C@@H](O)[C@H]2O)c(=O)n1`, 12.6 µM [falling, partial curve, poor fit] [measured here: IkB-luc green channel].
The same measure, in the same setting: for `Cc1ccc2nc(-c3ccccc3)cn2c1` the value was 12.6 µM [falling, partial curve]; for `CCOc1ccc(C(=O)c2cn(CC(=O)Nc3ccc(Cl)cc3)c3cc4c(cc3c2=O)OCCO4)cc1`, 7.94 µM [falling, partial curve]; for `COc1cc(NC(=O)c2cc(S(=O)(=O)N3CCc4ccccc43)cn2C)cc(OC)c1OC`, 10 µM [falling, partial curve].
On the same count and under the same terms, for `Cc1ccc(C)c(CN2C(=O)c3ccccc3S(=O)(=O)c3ccc(C(=O)N4CCCCC4)cc32)c1` the value was 20 µM [falling, single point]; for `Cc1ccc(S(=O)(=O)C(C#N)c2nc3ccccc3nc2N2CCCC2)cc1` (stereo not given), 10 µM [falling, partial curve].
In the case of `CC(=O)c1cccc(NC(=O)c2noc3c2CCCC3)c1`, the AC50 under setting [1] is 0.158 µM [rising, full curve, poor fit].
In the case of `CCc1ccccc1N(C)C(=O)c1cc2c(=O)oc3ccccc3c2s1`, the AC50 under setting [1] is 39.8 µM [falling, single point].
Same read-out and setting: for `CC(C)CC(=O)Nc1c(C(=O)N2CCN(c3ccccc3)CC2)oc2ccccc12` the value was 31.6 µM [falling, single point]; for `Cc1cc2cc(CNC(=O)Nc3ccccc3)ccc2n1C`, 15.8 µM [falling, partial curve]; for `Cc1ccc(-n2nnnc2SC(C)C(=O)Nc2ccc(Cl)cn2)cc1` (stereo not given), 31.6 µM [falling, single point].
`COc1cc2c(=O)n(CCc3ccccc3)c(=O)n(CC(=O)Nc3ccccc3)c2cc1OC`: the AC50 under setting [1] is 20 µM [falling, partial curve, poor fit].
As for `COc1cc(NC(=O)CSc2ncc(S(=O)(=O)c3ccc(Br)cc3)c(=O)[nH]2)cc(OC)c1`, the half-maximal activity concentration (AC50) under setting [1] was 15.8 µM [falling, partial curve].
`CC1(COc2ccc(C[C@H]3SC(=O)NC3=O)cc2)CCCCC1`: the AC50 under setting [1] is 39.8 µM [falling, single point].
Take `COCCCNC(=O)c1oc2ccc(S(=O)(=O)N(C)C3CCCCC3)cc2c1C`: the AC50 under setting [1] is 15.8 µM [falling, partial curve].
The same measure, in the same setting: for `Fc1ccc(-c2noc3ncnc(NC4CCCCC4)c23)cc1` the value was 7.94 µM [rising, partial curve]; for `CCN(CC)S(=O)(=O)c1ccc2oc(C(=O)N(C)Cc3ccccc3)c(C)c2c1`, 20 µM [falling, partial curve]; for `CCCCOc1cccc(C(=O)N(Cc2sccc2C)C2CCS(=O)(=O)C2)c1` (stereo not given), 31.6 µM [falling, single point].
Turning to `COc1cc(C2CC(=O)Nc3cc4c(cc32)OCCO4)cc(Br)c1OC` (stereo not given), the AC50 runs as follows: under setting [2], 2 µM [rising, partial curve]; under setting [3], 0.794 µM [rising, partial curve].
Turning to `COc1ccc(Cn2c(=O)c3oc4ccccc4c3n(Cc3ccc(F)cc3)c2=O)cc1`, under setting [1], the AC50 is 0.398 µM [falling, partial curve].
Same read-out and setting: for `Cc1cccc(N2CCN(C(=O)CCCCn3c(=O)[nH]c4ccsc4c3=O)CC2)c1C` the value was 15.8 µM [falling, partial curve]; for `COc1ccc(CNC(=O)c2ccc(CS(=O)(=O)c3ccccc3OC)o2)cc1`, 12.6 µM [falling, partial curve].
Same read-out and setting: for `Cc1ccc(Nc2ncccc2C(=O)O)cc1C` the value was 39.8 µM [falling, single point]; for `CCCC(=O)Nc1ccc(-c2nc3cc(C)ccc3o2)cc1`, 15.8 µM [falling, partial curve]; for `O=C1CCSC2(C(=O)N(Cc3ccc(F)cc3)c3ccccc32)N1c1ccc(F)c(F)c1` (stereo not given), 31.6 µM [falling, partial curve, poor fit].
For the compound `CCc1ccc(-c2nc(CS(=O)CC(=O)NCCc3ccc(Cl)cc3)c(C)o2)cc1` (stereo not given), the concentration at half-maximal activity (AC50) under setting [1] is 20 µM [falling, partial curve].
On the same count and under the same terms, for `CCOc1ccc2oc(=O)cc(CN3CCN(C(=O)c4ccc(F)cc4)CC3)c2c1` the value was 39.8 µM [falling, single point]; for `Cc1c(C(=O)Nc2cccc(Cl)c2)oc2ccc(S(=O)(=O)N(C)C3CCCCC3)cc12`, 10 µM [falling, partial curve]; for `O=C1c2ccccc2C(Nc2cccc(C(F)(F)F)c2)N1Cc1ccco1` (stereo not given), 20 µM [falling, partial curve].
Turning to `COC(=O)CCCCCNc1ccc(C(=O)OC)cc1N`, under setting [1], the AC50 was 7.94 µM [falling, partial curve].
The same measure, in the same setting: for `CCC(Sc1nncn2c1cc1oc(C)cc12)C(=O)Nc1ccc(F)cc1` (stereo not given) the value was 7.94 µM [falling, partial curve].
On the same count and under the same terms, for `COc1ccc(CCNC(=O)C(=O)NCC(c2ccco2)S(=O)(=O)c2ccc(F)cc2)cc1` (stereo not given) the value was 31.6 µM [falling, single point]; for `O=C(Cn1[nH]c(=O)c2ccccc2c1=O)Nc1ccc2c(c1)CCC2`, 3.16 µM [falling, single point]; for `CCOc1ccccc1NC(=O)CCn1nc(C)c(S(=O)(=O)N2CCCCC2)c1C`, 25.1 µM [falling, single point].
Same read-out and setting: for `O=C(Cn1ncc2c3ccccc3n(Cc3cccc(Cl)c3)c2c1=O)NC1CCCCCC1` the value was 25.1 µM [falling, single point]; for `CCCc1cc(C(=O)Nc2nccs2)cs1`, 15.8 µM [falling, single point].
As to `COc1ccccc1Nc1nn2c(=O)c3ccc(C(=O)Nc4ccc(F)cc4)cc3nc2s1`, the AC50 under setting [1] is 39.8 µM [falling, single point].
On to `CCOc1ccc2oc(=O)cc(CN3CCN(C(=O)c4cccc(F)c4)CC3)c2c1`, for which the AC50 under setting [1] is 39.8 µM [falling, single point].
On the same count and under the same terms, the same measure for `CCOC(=O)c1ccc(NC(=O)CCc2c(C)n(CC)c3cc(-c4ccccc4OC)nn3c2=O)cc1`: 25.1 µM [falling, single point].
As for `CCNC(=O)c1ccccc1NC(=O)c1cccc(S(=O)(=O)N2CCC(C)CC2)c1`, the AC50 under setting [1] is 15.8 µM [falling, partial curve].
As to `CC(NC(=O)C1CCN(C(=O)N2CCOc3ccc(Cl)cc32)CC1)c1ccccc1` (stereo not given), the AC50 under setting [1] was 25.1 µM [falling, single point].
The same measure, in the same setting: the same measure for `COc1ccc(N2CCN(C(=O)c3nn(C)c4c3CS(=O)(=O)c3ccccc3-4)CC2)cc1`: 12.6 µM [falling, partial curve].
Regarding `O=C(CCSCc1ccc(Cl)cc1)N1CCN(c2ccccc2F)CC1`, the AC50 under setting [1] was 31.6 µM [falling, single point].
On the same count and under the same terms, for `Cc1ccc(CNC(=O)CCn2ccc3cc(S(=O)(=O)N4CCCC4)ccc32)cc1` the value was 31.6 µM [falling, partial curve].
In the case of `COc1ccccc1NC(=O)CSc1nnc(-c2nonc2NC(C)=O)n1-c1ccccc1`, the AC50 under setting [1] is 25.1 µM [falling, partial curve].
On to `Cc1nn(-c2ccc(C(=O)O)cc2)c(N)c1-c1ccccc1`, for which the AC50 runs as follows: under setting [2], 1 µM [rising, partial curve]; under setting [3], 0.2 µM [falling, full curve].
`CCCc1cc(=O)n2[nH]c(-c3ccccc3)cc2n1`: the AC50 under setting [1] is 10 µM [falling, partial curve].
As for `C=C1C(=O)O[C@@H]2[C@@H]1CC/C(C)=C\CC[C@@]1(C)O[C@H]21`, the AC50 was 15.8 µM [rising, partial curve] under setting [2]; 15.8 µM [falling, partial curve] and 10 µM [falling, partial curve] under setting [3].
As to `O=C1CC(c2ccco2)CC2=C1C(c1ccccc1)n1nc(C(F)(F)F)nc1N2` (stereo not given), the AC50 under setting [1] was 31.6 µM [falling, single point].
On the same count and under the same terms, for `CCOCCCNC(=O)c1cc2c(=O)n3ccccc3nc2s1` the value was 1.26 µM [rising, partial curve].
Turning to `COc1ccc(N2CCN(C(=O)c3ccc(NC(=O)c4nsc5ccccc45)cc3)CC2)cc1`, the AC50 under setting [1] is 0.251 µM [falling, full curve].
